About 13,000 (3.2%) of roughly 400,000 compounds were called active. The shares of active, inactive and inconclusive entries below differ from those in the screen. Calls follow the shape of the dose curve; as a rule, active = well fitted cell-killing curve with a large enough effect; inconclusive = small, poorly fitted or top-dose-only effect, or effect the other way; inactive = flat fitted curve, though single readings scatter. Potencies of inconclusive entries are doubtful fits and often do not repeat.
Experiment: qHTS assay for MDR1-selective chemotherapeutics: Primary screen using the drug-selected MDR subline cells KB-V1; also: nearly all actives have a fitted effect of over 60% in size
Details: KB-V1 MDR cells viability, CellTiter-Glo, 72 h; activity change, negative = cytotoxicity: at 46.1 µM (top of the series)
Outline: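 Drug-selected KB-V1 cells, grown in DMEM lacking phenol red with 10% FBS, receive compound titrations; after three days at 37 degrees C, surviving cell ATP is quantified by CellTiter-Glo luminescence and responses normalized and curve-fitted.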
For CCOC(=O)c1c(NC(C)=O)sc2c1CCN(Cc1ccccc1)C2, the Potency was inconclusive: 25.9 µM [rising, single point].
With O=S(=O)(c1ccc(Br)cc1)c1nc(-c2ccccc2)oc1NCCN1CCOCC1 the Potency was inconclusive: 6.51 µM [cytotoxic, full curve].
In the case of CCn1c(=S)sc2c(=O)n(CC(=O)Nc3ccccc3OC)c(C)nc21, the “activity change, negative = cytotoxicity” value is reported as inactive: -17.8%.
For CCOc1ccc(-n2c(-c3ccccc3)c[n+]3c2CCC3)cc1, the Potency was inconclusive: 0.206 µM [rising, full curve].
For CCc1nc2c(OCc3ccc(Cl)cc3Cl)cccn2c1N(C)C(=O)C(C)C, the Potency was inconclusive: 29.1 µM [cytotoxic, single point].
In the case of CCCCS(=O)(=O)Nc1ccc2c(c1)ncn2C1CCCCC1, the Potency is reported as inconclusive: 29.1 µM [cytotoxic, single point].
For Cc1ccc(N2CCN(S(=O)(=O)c3cccs3)CC2C)cc1 (stereo not given), the Potency was inconclusive: 18.4 µM [cytotoxic, single point].
For Clc1ccc2nc(Nc3ccccc3Cl)nc(-c3ccccc3)c2c1, the “activity change, negative = cytotoxicity” value was inactive: 5.95%.
For CCOc1ccc(-n2c(=O)c3c4c(sc3n(Cc3cccc(C)c3)c2=O)CCCC4)cc1, the Potency was inconclusive: 20.6 µM [rising, partial curve].
In the case of COc1cc2c(cc1OC)C(c1cccs1)N(C(=O)c1cccnc1)CC2 (stereo not given), the Potency is reported as inconclusive: 11.6 µM [cytotoxic, partial curve, poor fit].
With CCOc1ccc(CC2NCCc3cc(OCC)c(OCC)cc32)cc1OCC (stereo not given) the Potency was inconclusive: 5.8 µM [cytotoxic, partial curve].
In the case of Cc1nnc(NC(=O)CSc2nccn2-c2cccc(C)c2C)s1, the Potency is reported as active: 9.2 µM.
For Cc1ccccc1CN(c1ccc(C(=O)Nc2ccccc2C(=O)NCc2ccco2)cc1)S(C)(=O)=O, the Potency was active: 8.2 µM.
For CCC(=O)N1CCCN(S(=O)(=O)c2ccc(C)cc2)C1c1ccc(OC)cc1 (stereo not given), the Potency was inconclusive: 9.2 µM [cytotoxic, partial curve].
With CCc1ccc(NC(=S)NC2CC3CCCC(C2)N3Cc2ccccc2)cc1 (stereo not given) the “activity change, negative = cytotoxicity” value was inactive: -14.7%.
For CC(=O)N1c2ccc(S(=O)(=O)N3CCC(C(=O)Nc4cccc(C(F)(F)F)c4)CC3)cc2CC1C (stereo not given), the “activity change, negative = cytotoxicity” value was inactive: -10.8%.
For CCc1ccc(NCc2cc3cc4c(cc3n(CC(=O)Nc3ccccc3Cl)c2=O)OCO4)cc1, the Potency was inconclusive: 25.9 µM [cytotoxic, partial curve, poor fit].
For CCOCCCNC(=O)C1CCN(c2cc(C)nc3c(-c4ccc(Cl)cc4)c(C)nn23)CC1, the Potency was inconclusive: 29.1 µM [rising, single point].
With CCc1ccc2c(c1)cc(CN(C(=S)Nc1ccccc1C)C1CC1)c1nnnn12 the Potency was inconclusive: 18.4 µM [cytotoxic, partial curve].
For COc1ccc(Nc2nc(-c3sc(C)nc3C)cs2)cc1, the Potency was active: 1.64 µM.
In the case of CCOC(=O)C1CCCN(C(=O)c2cc3c(-c4cccc(OC)c4)nn(C)c3s2)C1 (stereo not given), the Potency is reported as active: 6.51 µM.
In the case of Cc1ccc(-c2cn3c(n2)sc2cc(C(=O)NC4CCCc5ccccc54)ccc23)cc1 (stereo not given), the “activity change, negative = cytotoxicity” value is reported as inactive: -17.2%.
For COc1ccccc1N1CCN(C(c2cccs2)C(C)NC(=O)c2cccs2)CC1 (stereo not given), the Potency was active: 4.11 µM.
In the case of CCn1nc(NS(=O)(=O)c2ccc([N+](=O)[O-])cc2)c2cc3cccc(C)c3nc21, the Potency is reported as inconclusive: 23.1 µM [rising, single point].
For COc1cc2c3c(cccc3c1)C(=O)N(CCN1CCCC1)C2=O, the Potency was active: 10.3 µM.
For Cc1ccc(NC(=O)c2cc3c(-c4ccccc4)nn(-c4ccccc4)c3s2)cc1, the Potency was inconclusive: 16.4 µM [cytotoxic, partial curve, poor fit].
In the case of Cc1cccc(C2c3[nH]c4ccccc4c3CCN2C(=O)c2ocnc2C)n1 (stereo not given), the “activity change, negative = cytotoxicity” value is reported as inactive: -5.03%.
With Cc1cccc(OCCN2CSC(=S)N(C)C2)c1 the Potency was active: 10.3 µM.
For COC(=O)c1ccc2nc(-c3ccccc3)c(Cc3ccc(C)cc3)n2c1, the Potency was inconclusive: 6.51 µM [cytotoxic, partial curve, poor fit].
In the case of CC1=C(/C=C/C(C)=C/C=C/C(C)=C\C(=O)O)C(C)(C)CCC1, the “activity change, negative = cytotoxicity” value is reported as inactive: -14.5%.
With COc1ccccc1-c1cnc(C(O)c2cc(C)ccc2C)[nH]1 (stereo not given) the “activity change, negative = cytotoxicity” value was inactive: -12.6%.
With Cc1cc(C(=O)Nc2ccccn2)no1 the “activity change, negative = cytotoxicity” value was inactive: 10.7%.
For CC/C(=C(/CC)c1ccc(O)cc1)c1ccc(O)cc1, the Potency was inconclusive: 18.4 µM [cytotoxic, single point].
With C[C@@H]1NC(=O)c2cc([N+](=O)[O-])cc(F)c2NCCC[C@@H](C(N)=O)NC(=O)[C@H](CC(N)=O)NC1=O the Potency was inconclusive: 23.1 µM [rising, single point].
For COc1ccc(CNC(=O)c2cc3c(-c4ccccc4F)nn(C)c3s2)cc1, the Potency was inconclusive: 4.61 µM [cytotoxic, full curve, poor fit].
With COC(=O)C(NC(=O)C(CC(C)C)NC(=O)C1CCC(C)CC1)C(C)C (stereo not given) the Potency was inconclusive: 4.11 µM [cytotoxic, full curve].
With CCN(CC)c1ccc(/C=N/Nc2nc3ccccc3[nH]2)cc1 the “activity change, negative = cytotoxicity” value was inactive: 24.3%.
For CCC1CCc2c(sc(NC(=O)c3ccoc3C)c2C(N)=O)C1 (stereo not given), the Potency was inconclusive: 20.6 µM [cytotoxic, single point].
For CCCCC(CC)C(=O)Nc1ncc([N+](=O)[O-])s1 (stereo not given), the Potency was inconclusive: 18.4 µM [cytotoxic, single point].
In the case of O=C(Cn1ncc(Cl)c(Cl)c1=O)c1ccc2c(c1)OCCO2, the Potency is reported as active: 20.6 µM.
In the case of C=CCn1c(O)c(C=Nc2ccc(CN3CCCCC3)cc2)c(=O)[nH]c1=S, the activity change, negative = cytotoxicity is reported as inconclusive: 86.9%.
For Cc1ccc(S(=O)(=O)N(CC(=O)Nc2cccnc2)c2cccc(Br)c2)cc1, the Potency was inconclusive: 20.6 µM [cytotoxic, partial curve, poor fit].
In the case of CCOc1ccccc1NC(=O)Cn1c(=O)n(-c2ccccc2)c(=O)c2c1c1cc(C)ccc1n2C, the “activity change, negative = cytotoxicity” value is reported as inactive: -6.92%.
In the case of CCOc1nc(C#N)nc(N(c2ccccc2)c2ccccc2)n1, the Potency is reported as inconclusive: 23.1 µM [rising, single point].
In the case of CCCCCCCCCc1conc1C(=O)CP(=O)(OC)OC, the Potency is reported as inconclusive: 29.1 µM [cytotoxic, single point].

From PubChem BioAssay AID1347076 (National Center for Advancing Translational Sciences (NCATS), 2019)
% is scaled to controls: 0 for no effect and ±100 for the full control effect; potency is read from the fitted curve at half-maximal effect.
